Source: PubChem BioAssay AID1224826 (NIAID, 2016)
The whole screen tested about 17,000 reagents; below is an unselected part. About 1,110 of them (6.6%) count as active. 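Active means lowered or raised reporter signal; replicate intensities are raw and not normalised per plate.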 Further read-outs or replicates are left out here. Reagent sequences are not shown.

- Screen: 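Regulators of Tlr4 signalling leading to Tnf-alpha expression in macrophages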 (primary screen)
- System: RAW264.7 G9 macrophages from mouse bearing reporters for p65 (GFP) and the Tnf promoter (mCherry)
- Knock-down reagent: siRNA pool against mouse genes, 100 nM
- Duration: 16 h of LPS stimulation, after 2 days of siRNA transfection
- Conditions: bacterial lipopolysaccharide (Salmonella minnesota R595), 10 ng/ml
- Measured: 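Imaged Tnf reporter mCherry in nuclei, minus background, normalised per plate to the median and expressed as robust z-scores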
- Scale: Tnf reporter robust z-score: higher = stronger Tnf promoter reporter signal after LPS; Tnf reporter intensity: higher = stronger Tnf promoter reporter signal
- Call rule: 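Called active when robust z-score is at most -1.3, matching the median of the Tlr4 knock-down control, or over 3; control wells and wells with under 50 cells never active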
- Meaning of the calls: active = Tnf reporter clearly lowered or raised; inactive = no clear change in Tnf reporter

| target | Tnf reporter robust z-score | fewer than 50 cells in well | Tnf reporter intensity, replicate 1 | call |
| --- | --- | --- | --- | --- |
| Rps29 | -1.32 | enough cells in well | 156 | active |
| Slc12a1 | -0.3 | enough cells in well | 211 | inactive |
| Gab1 | -0.92 | enough cells in well | 189 | inactive |
| Dcaf15 | – | fewer than 50 cells per well; well left out of calls | 116 | inactive |
| Or4c3 | 2.25 | enough cells in well | 235 | inactive |
| Cep290 | -0.07 | enough cells in well | 227 | inactive |
| Gpatch4 | 0.31 | enough cells in well | 264 | inactive |
| Or5al7 | 0.97 | enough cells in well | 213 | inactive |
| Barx1 | 1.31 | enough cells in well | 198 | inactive |
| Mov10l1 | 2.24 | enough cells in well | 396 | inactive |
| Coxfa4 | -1.45 | enough cells in well | 115 | active |
| Plxdc2 | -0.44 | enough cells in well | 111 | inactive |
| Oas1h | 0.47 | enough cells in well | 243 | inactive |
| Rela | -0.36 | enough cells in well | 261 | inactive |
| Dnajc9 | 0.68 | enough cells in well | 176 | inactive |
| Eddm3b | -1.04 | enough cells in well | 126 | inactive |
| Slc60a2a | -0.43 | enough cells in well | 186 | inactive |
| Dlgap1 | 0.89 | enough cells in well | 183 | inactive |
| Srp68 | – | fewer than 50 cells per well; well left out of calls | 236 | inactive |
| Mbtd1 | -0.53 | enough cells in well | 253 | inactive |
| Rhbdd1 | 1.23 | enough cells in well | 290 | inactive |
| Adamts16 | -0.81 | enough cells in well | 150 | inactive |
| Pcsk9 | – | fewer than 50 cells per well; well left out of calls | 123 | inactive |
| Serf1 | 2.25 | enough cells in well | 145 | inactive |
| Kctd13 | 0.14 | enough cells in well | 222 | inactive |
| Arhgap6 | -1.3 | enough cells in well | 105 | active |
| Zyx | 0.75 | enough cells in well | 373 | inactive |
| Acsbg1 | -0.96 | enough cells in well | 131 | inactive |
| Kcnj3 | 0.34 | enough cells in well | 227 | inactive |
| Rad1 | -0.2 | enough cells in well | 274 | inactive |
| Uqcrq | -0.46 | enough cells in well | 235 | inactive |
| Il22ra2 | -0.33 | enough cells in well | 201 | inactive |
| Rgcc | 0.14 | enough cells in well | 127 | inactive |
| Htr6 | -0.64 | enough cells in well | 178 | inactive |
| Cpa3 | -1.02 | enough cells in well | 98.6 | inactive |
| Rps27l | 1.33 | enough cells in well | 154 | inactive |
| Or4k5 | 3.69 | enough cells in well | 257 | active |
| 4933427E11Rik | 0.59 | enough cells in well | 193 | inactive |
| Elk3 | -0.74 | enough cells in well | 134 | inactive |
| Setd4 | – | fewer than 50 cells per well; well left out of calls | 3.08 | inactive |
| Fam89b | 2.12 | enough cells in well | 438 | inactive |
| Grap2 | -0.29 | enough cells in well | 238 | inactive |
| Hspa4 | -0.26 | enough cells in well | 267 | inactive |
| Slc25a30 | -0.47 | enough cells in well | 96.2 | inactive |
| Or5w13 | 0.29 | enough cells in well | 198 | inactive |
| Ndrg3 | 0.54 | enough cells in well | 303 | inactive |
| Abca13 | -1.13 | enough cells in well | 136 | inactive |
| Ccser1 | 2.29 | enough cells in well | 327 | inactive |
| Fndc10 | 0.84 | enough cells in well | 270 | inactive |
| Pex39 | – | fewer than 50 cells per well; well left out of calls | 105 | inactive |
| Shb | 0.72 | enough cells in well | 351 | inactive |
| Eppk1 | 1.86 | enough cells in well | 396 | inactive |
| Sh3rf1 | 0.09 | enough cells in well | 126 | inactive |
| Trmt10a | – | fewer than 50 cells per well; well left out of calls | 59.5 | inactive |
| Gjd3 | -0.02 | enough cells in well | 201 | inactive |
| Myh1 | 1.21 | enough cells in well | 363 | inactive |
| Znf41-ps | 2.22 | enough cells in well | 368 | inactive |
| Rai2 | -1.21 | enough cells in well | 201 | inactive |

Hits, among the entries above:
| target | Tnf reporter robust z-score | fewer than 50 cells in well | Tnf reporter intensity, replicate 1 | call |
| --- | --- | --- | --- | --- |
| Rps29 | -1.32 | enough cells in well | 156 | active |
| Coxfa4 | -1.45 | enough cells in well | 115 | active |
| Arhgap6 | -1.3 | enough cells in well | 105 | active |
| Or4k5 | 3.69 | enough cells in well | 257 | active |
